In patent publication US10786521B2, “Methods and compositions for treatment of COPD diseases” (Shanghai KE Pharmaceutical Co., LTD, priority 2014, dated 2020):
Some of these results come from one statement about several compounds together.

Tested on: airway smooth muscle (bronchial rings)
Assay: Relaxation of evoked isometric force of bronchial rings (wire myograph)
Assay type: cell-based, mice
Conditions: MCh-evoked force; concentration not restated (500 μM screen)
Protocol: Briefly, the entire respiratory tree was rapidly removed and immersed in Krebs-Henseleit buffer (118.1 mM NaCl, 4.7 mM KCl, 1.2 mM MgSO4, 2.5 mM CaCl2, 1.0 mM NaH2PO4, 25 mM NaHCO3 and 11.1 mM glucose, pH 7.4). Bronchial rings, 2 mm in length, were isolated from pulmonary bronchi using a dissection microscope. Then the bronchial segments were mounted in a small-vessel wire myograph chamber (Danish Myo Technology, Aarhus, Denmark) by threading on two steel wires (40 μm in diameter) secured to two supports. One support was attached to a force transducer for measurements of isometric force development, and the other was attached to a micrometer controlling ring circumference. The preparation was kept in the chamber, immersed in 5 ml of Krebs-Henseleit solution, bubbled with 5% CO2 and 95% O2 and maintained at 37° C. The initial isometric tension of bronchial ring was set to 0 mN prior to equilibration for 20 min. The bronchial ring was then stretched in order to keep the force at 5 mN followed by an additional equilibration for 20 min. The isometric forces produced by bronchial ring was recorded with a data acquisition and analysis program (Danish Myo Technology, Aarhus, Denmark). […]
Their dose-responsive effect on relaxation of airway smooth muscle was measured. […]

How did the “force relaxed (two of the five active compounds)” value turn out when `CC1(C)[C@@H](O)CC[C@]2(C)[C@H]3C(=O)C=C4[C@@H]5C[C@@](C)(C(=O)O)CC[C@]5(C)CC[C@@]4(C)[C@]3(C)CC[C@@H]12` [Glycyrrhetinic acid] was run?
Its value is “more than 80%”.
